Data reported in patent US20120302607A1, “C4-SUBSTITUTED ALPHA-KETO OXAZOLES” (The Scripps Research Institute, priority 2008, published 2012).
Some entries share one result that the patent states for a list of compounds.

Tested on: triacylglycerol hydrolase (TGH)
Assay: Proteome-wide serine hydrolase selectivity screening, TGH
Type: biochemical, human
Settings: text b175

O=C(CCCCCCc1ccccc1)c1nc(-c2ccccn2)co1 [Compound 4k, 7-Phenyl-1-(4-(pyridin-2-yl)oxazol-2-yl)heptan-1-one]
selective for FAAH versus TGH: > 300 fold
